The supplement of paper PMC12819154, “High-throughput peptide-centric local stability assay extends protein–ligand identification to membrane proteins, tissues and bacteria” (Nature Structural & Molecular Biology, 2025)
The other results are listed elsewhere or left out. Most values lie at the level of the controls, where differences are scatter.

Sequences of proteins named here, by UniProt entry; tags and fusion partners are left off. A change or cut given only in a name is not applied to a line headed by its entry.
UniProt P53612: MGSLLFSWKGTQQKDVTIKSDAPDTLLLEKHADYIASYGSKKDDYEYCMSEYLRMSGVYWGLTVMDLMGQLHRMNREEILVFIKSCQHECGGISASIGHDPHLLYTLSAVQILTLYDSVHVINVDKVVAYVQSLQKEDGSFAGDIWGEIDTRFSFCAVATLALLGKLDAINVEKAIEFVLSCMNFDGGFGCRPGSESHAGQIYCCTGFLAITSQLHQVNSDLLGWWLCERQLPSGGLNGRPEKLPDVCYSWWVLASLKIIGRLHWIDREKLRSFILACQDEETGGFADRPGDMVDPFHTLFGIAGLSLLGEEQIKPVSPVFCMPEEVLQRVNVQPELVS
UniProt P47879: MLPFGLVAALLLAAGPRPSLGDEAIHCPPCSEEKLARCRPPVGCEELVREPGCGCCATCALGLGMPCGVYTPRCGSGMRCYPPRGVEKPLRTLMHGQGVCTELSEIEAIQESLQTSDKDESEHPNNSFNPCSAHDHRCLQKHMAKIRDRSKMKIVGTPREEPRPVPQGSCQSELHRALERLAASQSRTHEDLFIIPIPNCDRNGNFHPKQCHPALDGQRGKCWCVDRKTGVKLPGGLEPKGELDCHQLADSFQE
UniProt P56387: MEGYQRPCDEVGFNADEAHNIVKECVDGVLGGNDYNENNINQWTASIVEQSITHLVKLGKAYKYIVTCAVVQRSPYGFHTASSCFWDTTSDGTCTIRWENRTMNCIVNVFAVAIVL
UniProt P49935: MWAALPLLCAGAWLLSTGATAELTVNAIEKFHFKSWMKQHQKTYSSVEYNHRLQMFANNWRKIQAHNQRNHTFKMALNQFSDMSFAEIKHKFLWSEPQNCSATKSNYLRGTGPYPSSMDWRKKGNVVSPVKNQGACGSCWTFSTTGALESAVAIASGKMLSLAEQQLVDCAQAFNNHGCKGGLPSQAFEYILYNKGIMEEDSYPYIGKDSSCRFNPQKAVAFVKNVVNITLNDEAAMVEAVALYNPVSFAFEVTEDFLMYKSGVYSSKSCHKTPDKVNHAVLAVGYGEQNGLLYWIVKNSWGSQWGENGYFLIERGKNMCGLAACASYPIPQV
UniProt P37040: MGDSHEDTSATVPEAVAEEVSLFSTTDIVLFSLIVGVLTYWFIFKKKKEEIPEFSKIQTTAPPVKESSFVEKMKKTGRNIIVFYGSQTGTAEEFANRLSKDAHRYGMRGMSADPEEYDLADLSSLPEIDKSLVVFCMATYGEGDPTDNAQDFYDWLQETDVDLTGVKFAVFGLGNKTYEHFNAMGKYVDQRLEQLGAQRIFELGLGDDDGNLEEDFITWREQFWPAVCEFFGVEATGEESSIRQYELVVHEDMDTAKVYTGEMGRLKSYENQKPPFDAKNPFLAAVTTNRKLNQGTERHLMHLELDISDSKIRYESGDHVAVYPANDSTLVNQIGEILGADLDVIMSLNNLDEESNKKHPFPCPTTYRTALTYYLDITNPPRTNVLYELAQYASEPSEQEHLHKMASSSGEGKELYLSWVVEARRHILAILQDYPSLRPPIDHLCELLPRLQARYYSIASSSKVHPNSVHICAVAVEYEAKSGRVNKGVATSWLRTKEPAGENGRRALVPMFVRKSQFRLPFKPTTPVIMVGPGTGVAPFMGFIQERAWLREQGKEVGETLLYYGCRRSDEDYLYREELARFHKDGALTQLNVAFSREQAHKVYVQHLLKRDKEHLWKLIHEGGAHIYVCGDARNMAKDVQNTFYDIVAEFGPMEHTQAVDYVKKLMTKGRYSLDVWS
UniProt P51949: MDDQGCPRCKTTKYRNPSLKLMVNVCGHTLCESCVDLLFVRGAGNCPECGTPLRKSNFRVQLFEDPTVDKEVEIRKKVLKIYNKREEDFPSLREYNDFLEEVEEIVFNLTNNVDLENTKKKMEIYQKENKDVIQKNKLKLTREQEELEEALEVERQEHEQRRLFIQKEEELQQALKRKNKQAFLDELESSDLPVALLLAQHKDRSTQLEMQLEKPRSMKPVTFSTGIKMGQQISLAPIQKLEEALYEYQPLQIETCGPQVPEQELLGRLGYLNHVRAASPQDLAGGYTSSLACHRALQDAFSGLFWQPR
UniProt P43276, whole entry: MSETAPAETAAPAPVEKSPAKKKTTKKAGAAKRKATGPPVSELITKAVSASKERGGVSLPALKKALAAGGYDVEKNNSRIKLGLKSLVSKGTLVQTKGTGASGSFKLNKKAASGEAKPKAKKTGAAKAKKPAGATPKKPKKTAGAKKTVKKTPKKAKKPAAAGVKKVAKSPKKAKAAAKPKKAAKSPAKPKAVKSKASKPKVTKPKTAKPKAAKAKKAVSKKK
UniProt P49443: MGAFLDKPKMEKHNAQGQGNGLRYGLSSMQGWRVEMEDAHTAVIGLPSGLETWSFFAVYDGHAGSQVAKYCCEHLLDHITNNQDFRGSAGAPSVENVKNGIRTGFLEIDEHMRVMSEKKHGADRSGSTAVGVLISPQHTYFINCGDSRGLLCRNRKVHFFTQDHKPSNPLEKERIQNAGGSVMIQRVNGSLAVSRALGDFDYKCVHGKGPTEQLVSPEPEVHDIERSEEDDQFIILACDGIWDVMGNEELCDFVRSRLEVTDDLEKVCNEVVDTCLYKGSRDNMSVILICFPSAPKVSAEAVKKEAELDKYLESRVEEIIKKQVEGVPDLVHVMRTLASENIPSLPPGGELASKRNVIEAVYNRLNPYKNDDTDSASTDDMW
UniProt P53657: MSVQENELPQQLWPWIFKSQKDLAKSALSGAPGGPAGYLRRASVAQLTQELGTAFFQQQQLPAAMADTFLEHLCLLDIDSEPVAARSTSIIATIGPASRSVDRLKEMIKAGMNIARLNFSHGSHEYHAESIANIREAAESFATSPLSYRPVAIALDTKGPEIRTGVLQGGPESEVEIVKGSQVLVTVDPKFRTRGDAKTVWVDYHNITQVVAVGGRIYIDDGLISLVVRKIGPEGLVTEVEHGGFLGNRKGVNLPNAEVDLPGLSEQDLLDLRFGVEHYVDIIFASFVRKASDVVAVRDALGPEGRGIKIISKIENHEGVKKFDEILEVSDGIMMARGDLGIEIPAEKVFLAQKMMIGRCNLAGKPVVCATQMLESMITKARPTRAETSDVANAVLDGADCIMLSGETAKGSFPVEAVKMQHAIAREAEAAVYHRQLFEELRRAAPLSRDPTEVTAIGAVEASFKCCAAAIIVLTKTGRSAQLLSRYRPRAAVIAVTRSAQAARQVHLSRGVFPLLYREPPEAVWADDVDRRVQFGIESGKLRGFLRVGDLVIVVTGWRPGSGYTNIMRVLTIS
UniProt P33267: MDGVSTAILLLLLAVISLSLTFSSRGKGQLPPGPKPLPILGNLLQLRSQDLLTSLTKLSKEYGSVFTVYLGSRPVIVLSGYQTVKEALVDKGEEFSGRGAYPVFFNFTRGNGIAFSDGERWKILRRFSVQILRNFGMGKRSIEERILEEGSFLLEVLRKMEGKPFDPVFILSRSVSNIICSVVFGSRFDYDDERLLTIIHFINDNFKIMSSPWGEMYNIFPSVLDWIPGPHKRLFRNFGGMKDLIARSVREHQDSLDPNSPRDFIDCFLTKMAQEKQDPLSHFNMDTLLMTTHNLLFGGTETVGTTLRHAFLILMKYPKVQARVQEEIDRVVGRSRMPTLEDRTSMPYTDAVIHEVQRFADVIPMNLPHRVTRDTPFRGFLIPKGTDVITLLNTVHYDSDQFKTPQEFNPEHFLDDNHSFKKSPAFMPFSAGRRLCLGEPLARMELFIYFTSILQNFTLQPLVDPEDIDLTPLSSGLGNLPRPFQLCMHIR
UniProt P56395, whole entry: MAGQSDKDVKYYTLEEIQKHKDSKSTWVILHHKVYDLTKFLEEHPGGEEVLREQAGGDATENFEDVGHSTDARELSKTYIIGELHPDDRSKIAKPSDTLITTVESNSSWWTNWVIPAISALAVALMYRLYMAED
UniProt P53986: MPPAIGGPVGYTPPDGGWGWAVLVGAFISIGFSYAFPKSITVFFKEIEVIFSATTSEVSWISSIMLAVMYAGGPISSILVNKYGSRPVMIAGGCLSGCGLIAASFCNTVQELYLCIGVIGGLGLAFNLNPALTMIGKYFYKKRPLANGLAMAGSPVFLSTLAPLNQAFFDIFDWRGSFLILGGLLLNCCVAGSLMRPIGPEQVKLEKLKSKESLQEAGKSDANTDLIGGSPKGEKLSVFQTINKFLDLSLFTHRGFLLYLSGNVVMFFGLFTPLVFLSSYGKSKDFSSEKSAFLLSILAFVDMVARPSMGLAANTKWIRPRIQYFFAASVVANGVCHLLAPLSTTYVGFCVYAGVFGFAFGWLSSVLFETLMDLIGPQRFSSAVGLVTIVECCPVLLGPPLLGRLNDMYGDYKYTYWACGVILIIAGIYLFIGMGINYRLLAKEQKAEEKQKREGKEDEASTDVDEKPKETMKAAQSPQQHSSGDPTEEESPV
UniProt P41233: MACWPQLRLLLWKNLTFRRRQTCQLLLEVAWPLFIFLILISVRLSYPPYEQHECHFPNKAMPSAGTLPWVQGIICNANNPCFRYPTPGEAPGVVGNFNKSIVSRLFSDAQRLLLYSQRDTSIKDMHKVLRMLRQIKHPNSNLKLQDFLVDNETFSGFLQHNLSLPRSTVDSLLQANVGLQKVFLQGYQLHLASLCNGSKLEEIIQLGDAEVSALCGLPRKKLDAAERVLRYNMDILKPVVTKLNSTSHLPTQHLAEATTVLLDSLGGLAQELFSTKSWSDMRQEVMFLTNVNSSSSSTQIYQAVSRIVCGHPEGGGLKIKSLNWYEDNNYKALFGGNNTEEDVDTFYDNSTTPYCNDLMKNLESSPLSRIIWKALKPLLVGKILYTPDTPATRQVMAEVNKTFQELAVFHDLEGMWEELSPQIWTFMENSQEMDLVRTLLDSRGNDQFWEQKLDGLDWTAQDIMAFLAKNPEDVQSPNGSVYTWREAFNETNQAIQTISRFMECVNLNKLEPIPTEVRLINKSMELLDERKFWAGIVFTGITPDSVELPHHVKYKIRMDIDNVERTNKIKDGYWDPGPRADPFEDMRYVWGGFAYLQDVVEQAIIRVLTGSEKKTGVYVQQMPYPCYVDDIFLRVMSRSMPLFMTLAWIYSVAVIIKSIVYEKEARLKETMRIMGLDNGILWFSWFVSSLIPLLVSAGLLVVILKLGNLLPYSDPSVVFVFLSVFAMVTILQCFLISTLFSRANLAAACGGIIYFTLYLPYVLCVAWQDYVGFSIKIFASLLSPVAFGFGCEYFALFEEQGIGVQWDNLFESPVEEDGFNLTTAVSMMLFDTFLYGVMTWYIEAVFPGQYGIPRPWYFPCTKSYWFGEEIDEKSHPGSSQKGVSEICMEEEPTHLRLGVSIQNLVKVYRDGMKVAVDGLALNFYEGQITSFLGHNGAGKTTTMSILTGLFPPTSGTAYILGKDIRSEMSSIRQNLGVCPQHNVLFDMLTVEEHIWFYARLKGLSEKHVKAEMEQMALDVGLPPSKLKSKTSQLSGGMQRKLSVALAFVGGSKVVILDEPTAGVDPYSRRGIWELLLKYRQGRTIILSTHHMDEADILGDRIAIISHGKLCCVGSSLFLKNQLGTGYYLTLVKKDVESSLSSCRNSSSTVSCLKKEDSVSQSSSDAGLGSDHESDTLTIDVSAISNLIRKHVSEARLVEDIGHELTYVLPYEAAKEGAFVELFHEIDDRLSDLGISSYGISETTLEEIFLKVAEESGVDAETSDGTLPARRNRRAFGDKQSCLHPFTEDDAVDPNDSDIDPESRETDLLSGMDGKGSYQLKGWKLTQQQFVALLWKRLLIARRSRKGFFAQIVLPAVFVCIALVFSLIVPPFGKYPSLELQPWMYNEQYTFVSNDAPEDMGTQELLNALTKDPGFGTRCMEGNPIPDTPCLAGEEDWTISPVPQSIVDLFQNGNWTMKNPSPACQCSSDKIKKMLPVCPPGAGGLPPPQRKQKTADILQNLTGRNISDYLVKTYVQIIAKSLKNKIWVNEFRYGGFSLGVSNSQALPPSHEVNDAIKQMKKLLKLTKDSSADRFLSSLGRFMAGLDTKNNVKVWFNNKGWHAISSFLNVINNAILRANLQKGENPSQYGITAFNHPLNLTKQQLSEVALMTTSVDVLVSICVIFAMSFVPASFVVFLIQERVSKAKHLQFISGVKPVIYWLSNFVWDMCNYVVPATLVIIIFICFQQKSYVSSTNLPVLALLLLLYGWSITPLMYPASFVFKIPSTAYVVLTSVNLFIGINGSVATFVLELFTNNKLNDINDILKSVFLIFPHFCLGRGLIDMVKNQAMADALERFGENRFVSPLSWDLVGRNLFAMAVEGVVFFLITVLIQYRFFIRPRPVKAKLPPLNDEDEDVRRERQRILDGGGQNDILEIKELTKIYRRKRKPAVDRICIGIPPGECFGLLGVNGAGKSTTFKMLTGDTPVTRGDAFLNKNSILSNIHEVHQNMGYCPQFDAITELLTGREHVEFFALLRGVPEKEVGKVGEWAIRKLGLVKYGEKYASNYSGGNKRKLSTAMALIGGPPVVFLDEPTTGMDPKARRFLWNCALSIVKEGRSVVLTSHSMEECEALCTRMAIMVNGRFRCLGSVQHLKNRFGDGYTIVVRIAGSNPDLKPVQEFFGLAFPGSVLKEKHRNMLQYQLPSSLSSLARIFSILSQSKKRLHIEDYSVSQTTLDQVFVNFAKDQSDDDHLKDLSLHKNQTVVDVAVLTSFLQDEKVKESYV

Compound: CN[C@@H]1C[C@H]2O[C@@](C)([C@@H]1OC)n1c3ccccc3c3c4c(c5c6ccccc6n2c5c31)C(=O)NC4 [staurosporine]
Assay: log2 fold change of pooled soluble protein (PISA), ligand vs vehicle (log2 ratio); higher = more thermally stabilized
Conditions: ligand concentration: 20 uM; assay format: PISA pool 52.9/55.5/58.6 C

Target | log2 fold change of pooled soluble protein
UniProt P32883 | 0.103
UniProt P41216 | -0.0305
UniProt P53612 | -0.0711
UniProt P47879 | 0.0224
UniProt P45700 | 0.0564
UniProt P35922 | -0.153
UniProt P56387 | -0.0216
UniProt P54731 | -0.0936
UniProt P53811 | 0.0644
UniProt P36993 | -0.0759
UniProt P56564 | 0.0975
UniProt P49935 | 0.0707
UniProt P28660 | 0.175
UniProt P28665 | 0.0161
UniProt P46935 | -0.0817
UniProt P37040 | -0.0313
UniProt P51949 | -0.0396
P48024;Q9CXU9 | 0.051
UniProt P43276 | -0.00857

Reprinted at random: 2 entries already listed
Target | log2 fold change of pooled soluble protein
P48024;Q9CXU9 | 0.051
UniProt P53612 | -0.0711

Following part.

Target | log2 fold change of pooled soluble protein
UniProt P29595 | 0.0377
UniProt P33215 | 0.364
UniProt P50285 | 0.102
UniProt P49443 | -0.0917
UniProt P53657 | 0.105
UniProt P33267 | -0.00123
UniProt P32067 | 0.0154
UniProt P54116 | -0.188
UniProt P36423 | 0.249
P31809;Q925P2 | 0.0626
UniProt P47934 | -0.0153
UniProt P56395 | 0.101
UniProt P53986 | 0.11
UniProt P41233 | 0.162
UniProt P42925 | 0.26
UniProt P34914 | 0.0262
UniProt P42125 | -0.057
UniProt P49222 | -0.0176
